Reference: PubChem BioAssay AID588497 (NMMLSC, 2011)
Screen size: about 360,000 compounds; about 780 (0.22%) were called active. Inconclusive results, whose numbers are uncertain, are shown with a selection of clear calls. Cut-off read from the data, not from the text of the source: active = inhibition above about 35% (passing the limit was not always enough); inconclusive = no clear call, values can overlap the other calls.

These molecules were tested on Botulinum neurotoxin type F light chain protease (Clostridium botulinum) (assay: BoNT/F light chain protease inhibitors, primary screen, biochemical, flow cytometry, MLPCN library (AID 588497; note: plate controls were buffer without enzyme for full effect and enzyme alone for no effect)). Settings: Multiplex microsphere protease cleavage assay, at 10 µM, active compounds read high.
In the case of `COc1ccccc1CNC(=O)Nc1nnc([C@H]2C[C@H](O)[C@@H](CO)O2)s1`, the inhibition is reported as inactive: 2.6%.
In the case of `COc1ccccc1NC(=O)CSc1ccc(-c2ccc(-n3ccnc3)cc2)nn1`, the inhibition is reported as inconclusive: -1.3%.
In the case of `CC(=O)c1nnn(-c2ccccc2C#N)c1C`, the inhibition is reported as inconclusive: -30.5%.
`Cc1cc(C[n+]2ccsc2N)c2ncccc2c1` was tested, and the inhibition was inactive: -6.6%.
With `Nc1ccc2oc(C3CCCCC3)nc2c1` the inhibition was inactive: -3.4%.
`O=C(Cc1ccccc1Cl)NC1(O)C(=O)c2ccccc2C1=O` was tested, and the inhibition was inconclusive: -72.4%.
`Cc1cccc(NC(=S)NC(=O)Cc2ccccc2)c1C` was tested, and the inhibition was inconclusive: 12.7%.
For `Cc1ccc(-n2c(-c3ccccc3)n[nH]c2=S)c(C)c1`, the inhibition was inconclusive: 9.5%.
With `COc1ccc(CN2C(=O)NC(=O)/C(=C/c3cc(OC)c(OC)c(OC)c3)C2=O)cc1` the inhibition was inconclusive: 8.4%.
In the case of `Cc1ccc2nc(N3C(=O)C(O)=C(C(=O)c4cc5ccccc5o4)C3c3cccs3)sc2c1` (centres undefined), the inhibition is reported as inactive: 25.1%.
`Cc1[nH]n(C(N)=S)c(=O)c1N=Nc1ccc(Br)cc1` was tested, and the inhibition was inconclusive: 8.8%.
In the case of `C=C(Cl)COC(=O)C1C2C=CC(C2)C1C(=O)O` (centres undefined), the inhibition is reported as inconclusive: -16.2%.
With `O=C(c1ccc(Oc2ccccc2)cc1)c1nc2c(n1O)CCCC2` the inhibition was inactive: -5.2%.
With `COc1cc(/C=C/C(=O)N[C@@H](Cc2c[nH]c3ccccc23)C(=O)O)ccc1O` the inhibition was inconclusive: 8.5%.
`CCn1c(CSc2nc(C)cc(C)n2)nnc1SCC(=O)Nc1ccccc1` was tested, and the inhibition was inconclusive: -27.4%.
`COc1cccc(/C=C/c2ccc3cccc(O)c3n2)c1OC` was tested, and the inhibition was inconclusive: -35.1%.
For `CCCC1CC(C#N)N(N(C)C)C1=C(C#N)C#N` (centres undefined), the inhibition was inconclusive: -77.9%.
`CC(=O)NC(=S)Nc1ccc(NC(=O)c2cccnc2Cl)cc1` was tested, and the inhibition was inconclusive: -38%.
For `COc1cccc(/C=c2/s/c(=C(\C#N)C(=O)N3CCOCC3)n(-c3ccccc3)c2=O)c1`, the inhibition was inactive: 4.7%.
In the case of `COc1ccccc1CNC(=O)/C=C/C(=O)O`, the inhibition is reported as inconclusive: -11.9%.
For `CCNC(=S)NNC(=O)c1ccncc1`, the inhibition was inactive: 4%.
`CC(C)NC(=O)CSc1nccc(-c2cccs2)n1` was tested, and the inhibition was inconclusive: -120%.
`CCCCNC(=O)N1CCCC(N(C)CCc2ccc(OC)c(OC)c2)C1` (centres undefined) was tested, and the inhibition was inconclusive: -7.1%.
In the case of `Cc1ccc(NC2c3ncccc3C(=O)N2Cc2ccc(F)cc2)cc1` (centres undefined), the inhibition is reported as inactive: -6.1%.
With `COc1ccc(OC)c(S(=O)(=O)NCCCc2ccccc2)c1` the inhibition was inconclusive: -12.9%.
In the case of `CCOc1cc(-c2cc(-c3ccc(NC(C)=O)cc3)nc(N)c2C#N)ccc1O`, the inhibition is reported as inconclusive: 8.5%.
For `CC12CN(C(=O)c3ccccc3Br)CC(C)(CN(C(=O)c3ccccc3Br)C1)C2=O`, the inhibition was inconclusive: -19.7%.
`CCOC(=O)c1ccc(CSc2nnc(C)n2N)o1` was tested, and the inhibition was inconclusive: 27.6%.
For `O=C1CC(N2CCN(Cc3ccc(Cl)cc3)CC2)C(=O)N1CCc1ccccc1` (centres undefined), the inhibition was inconclusive: -25.9%.
`Cc1ccc(SCC(=O)NC(C)c2ccccc2)cc1` (centres undefined) was tested, and the inhibition was inconclusive: -11.4%.
With `Cc1ccccc1NC(=S)N1CCN(c2ccccc2C)CC1` the inhibition was inconclusive: 22.2%.
For `Cc1cc(C)c(N(C(=O)Cn2nnc3ccccc32)C(C(=O)NC(C)(C)C)c2ccsc2)c(C)c1` (centres undefined), the inhibition was inactive: -2.3%.
For `CN(C)c1ccc(/C=C/c2nc3ccccc3c(=O)n2-c2ccc(C(=O)O)cc2)cc1`, the inhibition was inconclusive: -23.2%.
`O=C1/C(=C/c2cccnc2)SC(=S)N1CCc1ccccc1` was tested, and the inhibition was inconclusive: -136%.
For `CCOc1ccc(C(=O)NCC(=O)N2CC=C(c3ccccc3)CC2)cc1OCC`, the inhibition was inactive: 0.3%.
With `Cn1c(=O)c2ncn(CC(=O)O)c2n(C)c1=O` the inhibition was inconclusive: -8.2%.
With `CCOc1ccccc1CNc1nc2ccccc2n1C` the inhibition was inconclusive: 12.3%.
`COc1ccccc1/C(C)=N/Oc1cc(N)cc([N+](=O)[O-])c1` was tested, and the inhibition was inactive: -10%.
With `CC(=O)N1CCN(C(=O)c2cccc(S(=O)(=O)NCc3ccccc3)c2)CC1` the inhibition was inconclusive: 10.1%.
`CCC(=O)c1ccccc1OCCCN1CCC(Cc2ccccc2)CC1` was tested, and the inhibition was inconclusive: 2.8%.
For `CC1Nc2ccc(C(=O)NC3CCCCC3)cc2NC1=O` (centres undefined), the inhibition was inactive: 6.8%.
For `COc1cccc2cc(C(=O)C3=C(O)C(=O)N(CCN(C)C)C3c3ccc(Cl)cc3)oc12` (centres undefined), the inhibition was inconclusive: -60.5%.
For `Cc1nn(C(=O)c2ccc([N+](=O)[O-])cc2)c(C)c1Br`, the inhibition was inconclusive: 119%.
With `NC(=O)c1c(NC(=O)CCCC(=O)O)sc2c1CCCCCC2` the inhibition was inactive: 1.5%.
In the case of `C=CCOC(=O)C(C#N)c1nc2ccccc2nc1N1CCC(C(=O)OCC)CC1` (centres undefined), the inhibition is reported as inconclusive: 2%.
`COc1ccc(Cl)cc1C(=O)NNC(=O)c1nn(C)c(=O)c2ccccc12` was tested, and the inhibition was inconclusive: 5.5%.
For `O=C(Cn1cncn1)N/N=C/c1cccc(Cl)c1`, the inhibition was inconclusive: 1.1%.
`O=C(O)CC1(CC(=O)Nc2ccc(C(F)(F)F)cc2)CCCC1` was tested, and the inhibition was active: 39.8%.
For `O=C(COc1ccc2ccc(=O)oc2c1)Nc1ccc(CCO)cc1`, the inhibition was inactive: -7.7%.
With `O=C(CCCCCN1C(=O)c2ccccc2C1=O)Nc1ccc2c(c1)OCCO2` the inhibition was inconclusive: 2.3%.
For `CCOC(=O)C1CCN(Cc2ccc(OCc3ccccc3)cc2)CC1`, the inhibition was inconclusive: -7.4%.
In the case of `COc1cccc(NC(=S)NC(=O)/C=C/c2ccco2)c1`, the inhibition is reported as inconclusive: 11.6%.
`O=C(CN1CCCC1)N1c2ccccc2Sc2ccc(Cl)cc21` was tested, and the inhibition was inconclusive: 11.2%.
`O=C(CN1C(=O)NC2(CCOc3ccccc32)C1=O)c1ccc(F)c(F)c1` (centres undefined) was tested, and the inhibition was inactive: 11.7%.
With `S=c1[nH]nc(-c2cc(-c3ccccc3)n[nH]2)n1/N=C/c1ccc(Cl)c(Cl)c1` the inhibition was inconclusive: -3.9%.
`O=C(Nc1sc2c(c1C(=O)O)CCCCC2)c1cccnc1` was tested, and the inhibition was inconclusive: 15.9%.
For `CC(C)c1ccc(-c2nn(-c3ccccc3)cc2C(=O)NCC2CCCO2)cc1` (centres undefined), the inhibition was inactive: -7.6%.
`COc1ccc(C(=O)NC(Cc2c[nH]c3ccccc23)C(=O)O)cc1` (centres undefined) was tested, and the inhibition was inconclusive: 5.5%.
For `CCN(CC)S(=O)(=O)c1cccc(NC(=O)Nc2cccc(C(F)(F)F)c2)c1`, the inhibition was inactive: -10.7%.
